This is an account of results in publication PMC4940160, “Architecture and RNA binding of the human negative elongation factor”.

Sequences of proteins named here, by UniProt entry; tags and fusion partners are left off. A change or cut given only in a name is not applied to a line headed by its entry. A line that says so, or that is headed by a name, gives the form on record, which may keep a tag or linker. Residues count along the entry.
NELF-A (6–188) (Q9H3P2, residues 6-188): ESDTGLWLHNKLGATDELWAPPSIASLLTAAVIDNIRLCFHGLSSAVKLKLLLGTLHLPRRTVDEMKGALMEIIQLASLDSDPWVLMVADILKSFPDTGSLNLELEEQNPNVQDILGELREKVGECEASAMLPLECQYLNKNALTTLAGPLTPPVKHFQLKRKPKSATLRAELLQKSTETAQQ
NELF-A (6–188) with patch 1 and patch 4 mutations (Q9H3P2, form named): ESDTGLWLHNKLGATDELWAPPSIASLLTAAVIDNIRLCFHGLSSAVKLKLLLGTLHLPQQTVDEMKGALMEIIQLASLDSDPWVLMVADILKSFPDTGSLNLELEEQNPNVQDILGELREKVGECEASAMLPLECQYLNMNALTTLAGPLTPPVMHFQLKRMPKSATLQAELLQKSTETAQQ
NELF-A (6–188) with patch 4 mutations (Q9H3P2, form named): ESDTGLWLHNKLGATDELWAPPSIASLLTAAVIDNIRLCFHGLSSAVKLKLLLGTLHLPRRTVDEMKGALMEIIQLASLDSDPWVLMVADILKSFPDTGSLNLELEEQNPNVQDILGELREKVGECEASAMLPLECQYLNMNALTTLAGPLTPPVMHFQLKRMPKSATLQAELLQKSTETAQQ
UniProt Q8IXH7: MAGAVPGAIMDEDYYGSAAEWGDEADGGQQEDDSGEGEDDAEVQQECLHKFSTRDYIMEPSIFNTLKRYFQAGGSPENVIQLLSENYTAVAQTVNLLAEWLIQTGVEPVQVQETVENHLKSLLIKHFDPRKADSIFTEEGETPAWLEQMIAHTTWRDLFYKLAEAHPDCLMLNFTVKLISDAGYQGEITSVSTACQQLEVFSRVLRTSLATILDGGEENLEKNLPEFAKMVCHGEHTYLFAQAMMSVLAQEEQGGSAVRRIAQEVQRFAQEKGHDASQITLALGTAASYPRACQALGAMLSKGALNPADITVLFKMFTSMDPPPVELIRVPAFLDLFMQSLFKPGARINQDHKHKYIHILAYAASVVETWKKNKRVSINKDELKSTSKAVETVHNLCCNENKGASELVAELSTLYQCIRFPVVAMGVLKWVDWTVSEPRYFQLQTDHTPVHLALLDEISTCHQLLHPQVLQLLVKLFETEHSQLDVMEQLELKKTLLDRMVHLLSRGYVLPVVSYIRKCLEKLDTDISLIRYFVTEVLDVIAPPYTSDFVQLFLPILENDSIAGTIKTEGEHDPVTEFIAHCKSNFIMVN
NELF-C (183–590) with patch 1, 2, 3 and 4 mutations (Q8IXH7, form named): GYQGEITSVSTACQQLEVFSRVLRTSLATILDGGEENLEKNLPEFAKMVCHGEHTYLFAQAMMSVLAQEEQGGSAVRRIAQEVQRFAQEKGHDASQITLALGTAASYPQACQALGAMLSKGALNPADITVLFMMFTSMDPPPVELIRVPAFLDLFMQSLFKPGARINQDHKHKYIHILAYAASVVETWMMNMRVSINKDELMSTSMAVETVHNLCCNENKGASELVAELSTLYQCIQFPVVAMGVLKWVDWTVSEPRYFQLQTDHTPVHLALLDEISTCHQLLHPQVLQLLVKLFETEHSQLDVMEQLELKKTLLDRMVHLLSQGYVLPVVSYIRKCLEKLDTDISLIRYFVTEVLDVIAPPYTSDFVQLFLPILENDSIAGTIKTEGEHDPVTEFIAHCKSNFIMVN
NELF-C (183–590) with patch 2, 3 and 4 mutations (Q8IXH7, form named): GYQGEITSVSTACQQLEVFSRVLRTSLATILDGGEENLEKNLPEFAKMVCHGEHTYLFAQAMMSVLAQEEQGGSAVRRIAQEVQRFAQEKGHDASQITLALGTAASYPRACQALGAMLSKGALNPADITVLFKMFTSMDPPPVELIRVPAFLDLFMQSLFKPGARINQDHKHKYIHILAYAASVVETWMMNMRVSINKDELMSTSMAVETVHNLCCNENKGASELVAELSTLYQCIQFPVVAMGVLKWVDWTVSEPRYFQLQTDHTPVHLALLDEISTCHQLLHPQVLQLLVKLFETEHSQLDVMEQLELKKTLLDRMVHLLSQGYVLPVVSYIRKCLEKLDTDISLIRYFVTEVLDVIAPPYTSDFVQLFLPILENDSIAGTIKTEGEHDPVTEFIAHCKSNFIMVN
NELF-C (183–590) with patch 1, 2 and 4 mutations (Q8IXH7, form named): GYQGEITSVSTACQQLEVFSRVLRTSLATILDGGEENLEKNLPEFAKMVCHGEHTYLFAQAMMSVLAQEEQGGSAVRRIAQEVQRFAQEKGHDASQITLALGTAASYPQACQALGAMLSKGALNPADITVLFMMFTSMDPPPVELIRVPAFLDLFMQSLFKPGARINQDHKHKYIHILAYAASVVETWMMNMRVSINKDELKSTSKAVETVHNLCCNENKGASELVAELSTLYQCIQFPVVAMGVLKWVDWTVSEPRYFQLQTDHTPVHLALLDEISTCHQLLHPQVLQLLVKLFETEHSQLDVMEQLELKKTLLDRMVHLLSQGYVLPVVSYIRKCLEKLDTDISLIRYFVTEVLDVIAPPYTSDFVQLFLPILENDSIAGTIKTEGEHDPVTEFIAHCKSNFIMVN

The target in assay [1] is NELF-A (6–188) (human) (UniProt Q9H3P2). Briefly: co-purification after bacterial co-expression; NELF-A and NELF-C variants co-expressed in E. coli; Ni-NTA by the His6 tag on NELF-A (6–188), thrombin, anion exchange, Superose 6 size exclusion; 4°C, 150 mM NaCl, 40 mM Na-HEPES pH 7.4, 2 mM DTT. On the technique in general: Size exclusion chromatography separates by hydrodynamic size, large species first.

The target is the same in assay [2]. Briefly: crystal structure; hanging-drop vapor diffusion, 14–14.5% PEG 3350, 200 mM sodium malonate pH 6.8–7.0; SIRAS; 2.8Å; both purified.
For assay [3], the target named is NELF-A (6–188) with patch 1 and patch 4 mutations (human) (UniProt Q9H3P2). Briefly: co-purification after bacterial co-expression; NELF-A and NELF-C variants co-expressed in E. coli; Ni-NTA by the His6 tag on NELF-A (6–188), thrombin, anion exchange, Superose 6 size exclusion; 4°C, 150 mM NaCl, 40 mM Na-HEPES pH 7.4, 2 mM DTT.
The target of assay [4] is NELF-A (6–188) with patch 4 mutations (human) (UniProt Q9H3P2). The assay is described as above.

These are yes or no findings as the source states them, for the method shown. Some results given as binding are weak or reduced against the parent protein; the word gives no strength.

As for “NELF-C (36–590) (from UniProt Q8IXH7 36-590) (domain or fragment)”, in the assay with NELF-A (6–188) (human) [1], the binding result was “binds”.
As to “NELF-C (183–590) (from UniProt Q8IXH7 183-590) (domain or fragment)”, the binding result in the assay with NELF-A (6–188) (human) [2] and in the assay with NELF-A (6–188) (human) [1] was “binds” throughout.
Regarding “NELF-C (183–590) with patch 1, 2, 3 and 4 mutations (from UniProt Q8IXH7 183-590) (domain or fragment)”, the binding result in assay [3] is “binds”.
Turning to “NELF-C (183–590) with patch 2, 3 and 4 mutations (from UniProt Q8IXH7 183-590) (domain or fragment)”, in assay [4], the binding result is reported as “binds”.
With “NELF-C (183–590) with patch 1, 2 and 4 mutations (from UniProt Q8IXH7 183-590) (domain or fragment)”, the binding result in assay [3] is “binds”.
